Experimental data: patent US20120101083A1, “S1P1 AGONISTS COMPRISING A BICYCLIC N-CONTAINING RING” (GLAXO GROUP LIMITED, priority 2009, published 2012)
Some results were stated once for a whole list of compounds, not compound by compound.

Amino acid sequences for entries named in this document (tags omitted). A change or cut given only in a name is not applied to a line headed by its entry.
UniProt Q99500: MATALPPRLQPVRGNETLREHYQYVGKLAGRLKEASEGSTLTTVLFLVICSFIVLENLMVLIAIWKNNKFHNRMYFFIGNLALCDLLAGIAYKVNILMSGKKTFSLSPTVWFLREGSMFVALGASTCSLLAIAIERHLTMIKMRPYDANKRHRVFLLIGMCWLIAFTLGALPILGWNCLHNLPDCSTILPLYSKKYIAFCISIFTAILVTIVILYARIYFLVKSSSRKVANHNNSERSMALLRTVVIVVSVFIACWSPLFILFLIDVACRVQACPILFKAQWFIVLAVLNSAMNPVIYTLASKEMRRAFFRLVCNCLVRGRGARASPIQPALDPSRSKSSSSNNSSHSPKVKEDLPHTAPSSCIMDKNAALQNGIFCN
UniProt P21453, whole entry: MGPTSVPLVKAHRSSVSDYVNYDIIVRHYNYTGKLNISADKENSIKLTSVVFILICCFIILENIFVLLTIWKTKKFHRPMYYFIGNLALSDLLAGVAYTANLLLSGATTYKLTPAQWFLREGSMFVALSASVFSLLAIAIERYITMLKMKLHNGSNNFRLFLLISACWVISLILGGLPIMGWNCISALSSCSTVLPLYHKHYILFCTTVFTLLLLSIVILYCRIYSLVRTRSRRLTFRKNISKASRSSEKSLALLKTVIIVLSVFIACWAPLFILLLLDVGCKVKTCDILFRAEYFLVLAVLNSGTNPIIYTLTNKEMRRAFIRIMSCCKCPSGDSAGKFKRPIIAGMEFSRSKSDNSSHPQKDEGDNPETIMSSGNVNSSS

Experiments:
[1] = target: T1, S1P3 (S1P3 expressing RBL membranes) (Homo sapiens, UniProt Q99500); assay: S1P3 GTPγS assay; format: biochemical; conditions: first format, [35S]-GTPγS 0.3 nM
T1 construct: expressed in transfected cells; host or cells: RBL cells (membranes, crude or purified on a sucrose gradient)

[2] = target: T2, S1P1 (PathHunter CHO-K1 EDG1 β-Arrestin cell line) (Homo sapiens, UniProt P21453); assay: S1P-1 β-Arrestin recruitment assay; format: cell-based; conditions: CHO-K1 EDG1 β-Arrestin cells, chemi-luminescence
T2 construct: host or cells: PathHunter CHO-K1 EDG1 β-Arrestin cell line
Summary of the method: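 CHO-K1 cells expressing S1P1 and β-arrestin 2 fused to complementing β-galactosidase fragments, at 1×10^4 cells/well in pH 7.4 buffer with 0.1% BSA. Compound exposure 90 min at 37 °C then 15 min room temperature; chemiluminescent substrate added for 60 min before luminescence read.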

Row | pEC50 [1] | pEC50 [2] | SMILES
1 | < 6 | ≥ 7 | CC(C)Oc1ccc(-c2nnc(-c3ccc4c(c3)CCN(CCCO)CC4)s2)cc1C#N [Example 29, 5-{5-[3-(3-Hydroxypropyl)-2,3,4,5-tetrahydro-1H-3-benzazepin-7-yl]-1,3,4-thiadiazol-2-yl}-2-[(1-methylethyl)oxy]benzonitrile]
2 | < 6 | ≥ 7 | CC(C)Oc1ccc(-c2nc(-c3ccc4c(c3)CCN(CCCO)CC4)no2)cc1C#N [Example 20, 5-{3-[3-(3-Hydroxypropyl)-2,3,4,5-tetrahydro-1H-3-benzazepin-7-yl]-1,2,4-oxadiazol-5-yl}-2-[(1-methylethyl)oxy]benzonitrile]
3 | < 6 | ≥ 7 | Cc1c(-c2nnc(-c3ccc(OC(C)C)c(C#N)c3)s2)ccc2c1CCN(CCC(=O)N(C)C)C2 [Example 12, 3-[6-(5-{3-Cyano-4-[(1-methylethyl)oxy]phenyl}-1,3,4-thiadiazol-2-yl)-5-methyl-3,4-dihydro-2(1H)-isoquinolinyl]-N,N-dimethylpropanamide]
4 | < 6 | ≥ 7 | CC(C)Oc1ccc(-c2nc(-c3cccc4c3CCN(CCO)CC4)no2)cc1C#N [Example 34, 5-{3-[3-(2-Hydroxyethyl)-2,3,4,5-tetrahydro-1H-3-benzazepin-6-yl]-1,2,4-oxadiazol-5-yl}-2-[(1-methylethyl)oxy]benzonitrile]
5 | < 6 | ≥ 7 | CC(C)Oc1ccc(-c2nc(-c3cccc4c3CCN(CCCO)CC4)no2)cc1C#N [Example 33, 5-{3-[3-(3-Hydroxypropyl)-2,3,4,5-tetrahydro-1H-3-benzazepin-6-yl]-1,2,4-oxadiazol-5-yl}-2-[(1-methylethyl)oxy]benzonitrile]
6 | < 6 | ≥ 7 | CC(C)Oc1ccc(-c2nc(-c3ccc4c(c3)CCN(CCO)CC4)no2)cc1C#N [Example 19, 5-{3-[3-(2-Hydroxyethyl)-2,3,4,5-tetrahydro-1H-3-benzazepin-7-yl]-1,2,4-oxadiazol-5-yl}-2-[(1-methylethyl)oxy]benzonitrile]
7 | < 6 | ≥ 7 | Cc1c(-c2nnc(-c3ccc(OC(C)C)c(C#N)c3)s2)ccc2c1CCN(CCO)C2 [Example 15, 5-{5-[2-(2-Hydroxyethyl)-5-methyl-1,2,3,4-tetrahydro-6-isoquinolinyl]-1,3,4-thiadiazol-2-yl}-2-[(1-methylethyl)oxy]benzonitrile]
8 | < 6 | ≥ 7 | COCCN1CCc2c(ccc(-c3nnc(-c4ccc(OC(C)C)c(C#N)c4)s3)c2C)C1.Cl [Example 17, 2-[(1-Methylethyl)oxy]-5-(5-{5-methyl-2-[2-(methyloxy)ethyl]-1,2,3,4-tetrahydro-6-isoquinolinyl}-1,3,4-thiadiazol-2-yl)benzonitrile hydrochloride]
9 | < 6 | ≥ 7 | CC(C)Oc1ccc(-c2nc(-c3ccc4c(c3)CCN(CC(O)CO)CC4)no2)cc1C#N (stereo not drawn) [Example 27, 5-{3-[3-(2,3-Dihydroxypropyl)-2,3,4,5-tetrahydro-1H-3-benzazepin-7-yl]-1,2,4-oxadiazol-5-yl}-2-[(1-methylethyl)oxy]benzonitrile]
10 | < 6 | ≥ 7 | Cc1c(-c2nnc(-c3ccc(OC(C)C)c(C#N)c3)s2)ccc2c1CCN(CCCO)C2 [Example 16, 5-{5-[2-(3-Hydroxypropyl)-5-methyl-1,2,3,4-tetrahydro-6-isoquinolinyl]-1,3,4-thiadiazol-2-yl}-2-[(1-methylethyl)oxy]benzonitrile]
11 | < 6 | ≥ 7 | Cc1c(-c2nnc(-c3ccc(OC(C)C)c(C#N)c3)s2)ccc2c1CCN(CCCC(N)=O)C2 [Example 13, 4-[6-(5-{3-Cyano-4-[(1-methylethyl)oxy]phenyl}-1,3,4-thiadiazol-2-yl)-5-methyl-3,4-dihydro-2(1H)-isoquinolinyl]butanamide]
12 | < 6 | ≥ 7 | CC(C)Oc1ccc(-c2nnc(-c3ccc4c(c3)CCN(CCO)CC4)s2)cc1C#N.Cl [Example 28, 5-{5-[3-(2-Hydroxyethyl)-2,3,4,5-tetrahydro-1H-3-benzazepin-7-yl]-1,3,4-thiadiazol-2-yl}-2-[(1-methylethyl)oxy]benzonitrile hydrochloride]
